Values quoted from earlier work as cited in patent US20110319485A1, “Composition Having Anti-Helicobacter Pylori Activity And Its Application To Inhibit Helicobacter Pylori” (Yushen Biotechnology & Medical Co, Ltd., priority 2010, published 2011).
At least one compound was matched to its structure with a doubt left.

System: Helicobacter pylori
Details: A Vasquez et al., 1996; cited from earlier work

CN(C)[C@@H]1C(O)=C(C(N)=O)C(=O)[C@@]2(O)C(O)=C3C(=O)c4c(O)cccc4[C@@](C)(O)[C@H]3C[C@@H]12 [tetracycline]
minimum inhibitory concentration of known antibiotics: 1 µg/mL
